Measured values taken from article PMC4942636.
Results are given in words; binding and its absence hold for the method and conditions named. Binding seen in cells or lysates may run through a third protein. Here binding means that the protein was enriched with, or labelled near, the bait; the list need not be complete. For some of these results: No binding means not detected with the bait. For some of these results: Tags and fused reporters may be left off the sequences shown.

Sequences of proteins named here, by UniProt entry; tags and fusion partners are left off.
UniProt P55010: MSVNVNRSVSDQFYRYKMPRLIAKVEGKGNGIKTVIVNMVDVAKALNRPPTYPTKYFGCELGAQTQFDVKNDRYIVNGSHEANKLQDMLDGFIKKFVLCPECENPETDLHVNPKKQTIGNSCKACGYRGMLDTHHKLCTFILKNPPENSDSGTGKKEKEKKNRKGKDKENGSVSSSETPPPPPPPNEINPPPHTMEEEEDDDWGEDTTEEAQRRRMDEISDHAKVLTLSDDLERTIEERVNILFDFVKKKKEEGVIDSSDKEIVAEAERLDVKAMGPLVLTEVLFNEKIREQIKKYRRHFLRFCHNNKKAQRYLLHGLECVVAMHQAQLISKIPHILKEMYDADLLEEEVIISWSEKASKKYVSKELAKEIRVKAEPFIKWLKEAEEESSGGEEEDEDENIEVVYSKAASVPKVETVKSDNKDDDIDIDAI
UniProt P0DMV8: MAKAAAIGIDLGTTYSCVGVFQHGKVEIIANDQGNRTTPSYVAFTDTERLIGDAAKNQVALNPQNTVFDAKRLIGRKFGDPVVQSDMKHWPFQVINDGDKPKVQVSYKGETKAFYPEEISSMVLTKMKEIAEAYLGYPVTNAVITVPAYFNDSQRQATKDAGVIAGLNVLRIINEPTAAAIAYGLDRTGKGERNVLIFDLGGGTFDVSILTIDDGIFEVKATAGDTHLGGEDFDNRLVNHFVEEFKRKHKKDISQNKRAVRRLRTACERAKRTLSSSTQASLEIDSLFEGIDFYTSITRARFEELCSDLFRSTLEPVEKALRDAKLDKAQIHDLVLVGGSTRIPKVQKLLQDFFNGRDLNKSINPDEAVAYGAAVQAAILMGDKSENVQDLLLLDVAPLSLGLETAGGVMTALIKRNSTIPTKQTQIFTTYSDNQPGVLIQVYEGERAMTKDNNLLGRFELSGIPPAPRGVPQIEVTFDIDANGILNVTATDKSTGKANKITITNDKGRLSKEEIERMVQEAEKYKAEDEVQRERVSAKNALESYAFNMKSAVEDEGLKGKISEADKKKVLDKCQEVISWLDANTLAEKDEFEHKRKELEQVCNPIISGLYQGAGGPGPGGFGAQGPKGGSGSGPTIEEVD
UniProt P08238: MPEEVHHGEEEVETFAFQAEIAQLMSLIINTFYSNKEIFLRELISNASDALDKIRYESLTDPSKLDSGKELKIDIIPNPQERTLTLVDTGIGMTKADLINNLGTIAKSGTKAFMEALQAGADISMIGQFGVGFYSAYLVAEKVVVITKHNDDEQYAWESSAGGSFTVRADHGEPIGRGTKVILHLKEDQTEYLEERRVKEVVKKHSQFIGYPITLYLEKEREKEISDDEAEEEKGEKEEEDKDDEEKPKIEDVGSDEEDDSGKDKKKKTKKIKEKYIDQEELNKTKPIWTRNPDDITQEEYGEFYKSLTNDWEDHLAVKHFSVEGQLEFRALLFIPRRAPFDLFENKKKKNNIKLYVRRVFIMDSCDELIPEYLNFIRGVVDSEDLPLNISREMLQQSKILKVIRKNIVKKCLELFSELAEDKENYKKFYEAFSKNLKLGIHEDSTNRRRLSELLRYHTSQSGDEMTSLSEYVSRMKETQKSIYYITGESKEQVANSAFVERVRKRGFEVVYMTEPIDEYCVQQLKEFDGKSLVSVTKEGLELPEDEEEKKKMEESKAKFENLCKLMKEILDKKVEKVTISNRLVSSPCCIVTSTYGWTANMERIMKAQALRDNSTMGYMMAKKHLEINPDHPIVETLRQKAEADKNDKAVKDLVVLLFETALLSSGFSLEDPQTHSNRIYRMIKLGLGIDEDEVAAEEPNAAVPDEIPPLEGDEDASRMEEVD
UniProt Q9UQR0: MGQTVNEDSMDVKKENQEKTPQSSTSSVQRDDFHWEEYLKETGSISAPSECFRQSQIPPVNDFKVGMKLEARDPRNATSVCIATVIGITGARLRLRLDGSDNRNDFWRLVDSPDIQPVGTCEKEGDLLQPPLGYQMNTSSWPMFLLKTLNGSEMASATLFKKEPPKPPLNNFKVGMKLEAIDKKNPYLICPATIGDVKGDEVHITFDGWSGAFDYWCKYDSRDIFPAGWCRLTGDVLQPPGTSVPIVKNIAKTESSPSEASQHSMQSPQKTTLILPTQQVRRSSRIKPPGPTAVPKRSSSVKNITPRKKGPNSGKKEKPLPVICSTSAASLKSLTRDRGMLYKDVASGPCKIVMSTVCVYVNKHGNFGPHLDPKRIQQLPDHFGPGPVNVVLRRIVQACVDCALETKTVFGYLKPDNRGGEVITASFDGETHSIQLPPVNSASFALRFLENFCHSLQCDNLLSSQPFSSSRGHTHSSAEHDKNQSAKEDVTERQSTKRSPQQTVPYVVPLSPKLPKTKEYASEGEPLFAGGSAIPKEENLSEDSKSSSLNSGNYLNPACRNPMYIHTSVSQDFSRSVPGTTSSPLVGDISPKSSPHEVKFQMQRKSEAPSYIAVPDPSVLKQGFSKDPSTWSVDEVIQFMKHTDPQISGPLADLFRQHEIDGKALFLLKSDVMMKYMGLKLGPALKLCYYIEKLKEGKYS
UniProt P12270: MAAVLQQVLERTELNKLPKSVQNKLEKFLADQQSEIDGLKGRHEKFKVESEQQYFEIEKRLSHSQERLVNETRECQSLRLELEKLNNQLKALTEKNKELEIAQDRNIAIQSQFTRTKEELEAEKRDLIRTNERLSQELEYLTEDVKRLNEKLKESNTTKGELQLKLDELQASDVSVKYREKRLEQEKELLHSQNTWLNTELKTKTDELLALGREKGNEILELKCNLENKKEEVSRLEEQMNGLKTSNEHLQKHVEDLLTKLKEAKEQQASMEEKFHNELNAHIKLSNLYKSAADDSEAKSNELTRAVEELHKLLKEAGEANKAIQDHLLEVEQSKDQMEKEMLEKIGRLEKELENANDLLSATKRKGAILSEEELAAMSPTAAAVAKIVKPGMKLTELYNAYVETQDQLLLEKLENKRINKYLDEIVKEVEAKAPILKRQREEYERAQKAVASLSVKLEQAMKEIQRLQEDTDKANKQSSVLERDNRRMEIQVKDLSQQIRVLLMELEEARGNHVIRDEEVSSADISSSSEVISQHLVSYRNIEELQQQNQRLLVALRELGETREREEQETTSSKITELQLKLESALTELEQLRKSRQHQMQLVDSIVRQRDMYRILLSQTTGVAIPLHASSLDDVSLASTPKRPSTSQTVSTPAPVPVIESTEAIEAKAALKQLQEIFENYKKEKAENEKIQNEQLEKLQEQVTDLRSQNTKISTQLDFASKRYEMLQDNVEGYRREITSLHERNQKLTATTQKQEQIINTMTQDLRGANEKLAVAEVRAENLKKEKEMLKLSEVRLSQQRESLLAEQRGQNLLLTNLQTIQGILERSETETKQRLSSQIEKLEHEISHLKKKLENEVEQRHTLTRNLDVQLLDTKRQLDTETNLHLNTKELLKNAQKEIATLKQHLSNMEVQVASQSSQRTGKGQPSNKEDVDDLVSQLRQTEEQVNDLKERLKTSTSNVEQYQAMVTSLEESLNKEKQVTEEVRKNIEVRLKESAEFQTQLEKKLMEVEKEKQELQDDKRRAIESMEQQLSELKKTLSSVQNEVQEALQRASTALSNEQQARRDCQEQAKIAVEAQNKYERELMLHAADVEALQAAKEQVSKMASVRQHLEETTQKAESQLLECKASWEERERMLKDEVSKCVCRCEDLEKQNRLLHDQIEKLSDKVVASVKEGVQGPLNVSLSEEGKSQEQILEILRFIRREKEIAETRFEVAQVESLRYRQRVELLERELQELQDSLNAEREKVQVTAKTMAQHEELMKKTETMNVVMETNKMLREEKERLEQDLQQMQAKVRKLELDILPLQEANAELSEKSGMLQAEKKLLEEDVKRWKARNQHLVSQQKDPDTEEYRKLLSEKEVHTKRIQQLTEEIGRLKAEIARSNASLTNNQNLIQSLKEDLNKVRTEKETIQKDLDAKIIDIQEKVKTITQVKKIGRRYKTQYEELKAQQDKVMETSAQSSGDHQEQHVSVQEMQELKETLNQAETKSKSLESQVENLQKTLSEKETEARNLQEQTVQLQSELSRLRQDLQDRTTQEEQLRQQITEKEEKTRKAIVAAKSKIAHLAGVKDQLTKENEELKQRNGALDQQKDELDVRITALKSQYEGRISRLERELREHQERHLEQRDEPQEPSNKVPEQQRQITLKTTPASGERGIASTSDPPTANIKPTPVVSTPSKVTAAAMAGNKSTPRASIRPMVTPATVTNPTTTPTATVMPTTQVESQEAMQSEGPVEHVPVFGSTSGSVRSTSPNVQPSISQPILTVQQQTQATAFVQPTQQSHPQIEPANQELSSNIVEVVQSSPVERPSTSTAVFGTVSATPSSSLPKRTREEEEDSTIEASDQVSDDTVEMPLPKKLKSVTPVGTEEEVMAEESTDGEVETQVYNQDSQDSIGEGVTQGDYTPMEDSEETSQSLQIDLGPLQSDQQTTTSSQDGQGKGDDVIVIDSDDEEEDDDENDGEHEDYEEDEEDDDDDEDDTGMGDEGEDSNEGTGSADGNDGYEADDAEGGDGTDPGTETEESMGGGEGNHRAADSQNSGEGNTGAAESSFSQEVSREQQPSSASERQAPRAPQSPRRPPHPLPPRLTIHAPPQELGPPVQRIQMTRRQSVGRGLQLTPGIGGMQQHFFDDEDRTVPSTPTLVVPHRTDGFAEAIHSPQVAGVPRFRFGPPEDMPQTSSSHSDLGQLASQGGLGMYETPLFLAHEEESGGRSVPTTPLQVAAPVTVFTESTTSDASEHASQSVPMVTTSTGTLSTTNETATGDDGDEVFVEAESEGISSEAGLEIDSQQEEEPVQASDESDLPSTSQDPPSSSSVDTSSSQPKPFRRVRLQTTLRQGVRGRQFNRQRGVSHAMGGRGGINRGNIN
UniProt Q13263: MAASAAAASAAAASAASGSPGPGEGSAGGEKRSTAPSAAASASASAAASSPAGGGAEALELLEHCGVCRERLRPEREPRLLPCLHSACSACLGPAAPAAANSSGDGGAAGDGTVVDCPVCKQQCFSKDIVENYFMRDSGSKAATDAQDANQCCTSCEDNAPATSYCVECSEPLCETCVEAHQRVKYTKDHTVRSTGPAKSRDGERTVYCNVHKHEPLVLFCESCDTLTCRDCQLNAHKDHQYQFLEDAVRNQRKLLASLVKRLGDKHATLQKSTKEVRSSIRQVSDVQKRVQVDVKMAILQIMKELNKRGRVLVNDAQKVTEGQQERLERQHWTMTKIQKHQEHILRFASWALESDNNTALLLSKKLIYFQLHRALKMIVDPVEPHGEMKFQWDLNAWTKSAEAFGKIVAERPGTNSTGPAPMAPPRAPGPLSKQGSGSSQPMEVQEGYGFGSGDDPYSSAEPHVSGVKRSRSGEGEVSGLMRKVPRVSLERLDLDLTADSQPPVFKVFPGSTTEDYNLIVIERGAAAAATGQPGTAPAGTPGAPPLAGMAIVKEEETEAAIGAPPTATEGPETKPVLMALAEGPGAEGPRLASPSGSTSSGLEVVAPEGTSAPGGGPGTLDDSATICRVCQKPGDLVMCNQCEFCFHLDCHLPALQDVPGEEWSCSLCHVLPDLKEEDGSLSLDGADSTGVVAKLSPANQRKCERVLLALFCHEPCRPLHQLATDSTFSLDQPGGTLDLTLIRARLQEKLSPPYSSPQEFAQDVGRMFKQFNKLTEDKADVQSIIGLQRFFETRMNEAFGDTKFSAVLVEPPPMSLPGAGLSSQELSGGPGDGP
UniProt P11142: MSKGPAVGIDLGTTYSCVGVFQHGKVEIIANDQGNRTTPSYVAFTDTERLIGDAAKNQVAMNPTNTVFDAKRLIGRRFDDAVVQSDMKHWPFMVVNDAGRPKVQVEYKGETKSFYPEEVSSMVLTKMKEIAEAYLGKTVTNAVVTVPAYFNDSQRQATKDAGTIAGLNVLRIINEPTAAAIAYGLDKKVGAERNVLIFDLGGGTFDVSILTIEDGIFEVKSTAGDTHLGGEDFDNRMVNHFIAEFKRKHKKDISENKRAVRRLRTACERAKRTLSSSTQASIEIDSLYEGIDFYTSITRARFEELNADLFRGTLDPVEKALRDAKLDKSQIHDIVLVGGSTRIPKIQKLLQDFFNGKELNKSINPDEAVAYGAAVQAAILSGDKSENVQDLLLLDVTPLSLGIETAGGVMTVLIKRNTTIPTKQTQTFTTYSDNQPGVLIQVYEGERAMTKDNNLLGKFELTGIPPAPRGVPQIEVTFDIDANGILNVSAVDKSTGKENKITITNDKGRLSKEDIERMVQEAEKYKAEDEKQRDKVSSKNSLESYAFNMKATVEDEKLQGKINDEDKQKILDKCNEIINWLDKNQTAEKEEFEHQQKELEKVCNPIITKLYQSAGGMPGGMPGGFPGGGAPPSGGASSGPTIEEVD

What was measured:
Myc-BirA*-Txnip (human) [1] = target: Myc-BirA*-Txnip (human) (UniProt Q9H3M7); assay: proximity labelling; BioID: Myc-BirA*-Txnip or its C247S mutant stably expressed in HEK293, DMEM with 25 mM glucose and 50 uM biotin for 24 hrs; stringent lysis (0.4% SDS, 500 mM NaCl), biotinylated proteins captured on streptavidin Dynabeads, on-bead trypsin digestion, 1D LC-MS/MS; hits in at least 2 of 3 trials, parental HEK293 as control; also the high glucose arm of cells acclimated to low glucose
Myc-BirA*-Txnip (human) [2] = target: Myc-BirA*-Txnip (human) (UniProt Q9H3M7); assay: proximity labelling; BioID as a1, but BirA*-Txnip HEK293 cells acclimated to and cultured in low glucose (5.5 mM) with biotin; compared with high glucose (25 mM)
[3] = target: T1, Myc-BirA*-Txnip C247S (human) (UniProt Q9H3M7); assay: proximity labelling; BioID: Myc-BirA*-Txnip or its C247S mutant stably expressed in HEK293, DMEM with 25 mM glucose and 50 uM biotin for 24 hrs; stringent lysis (0.4% SDS, 500 mM NaCl), biotinylated proteins captured on streptavidin Dynabeads, on-bead trypsin digestion, 1D LC-MS/MS; hits in at least 2 of 3 trials, parental HEK293 as control; also the high glucose arm of cells acclimated to low glucose
T1 sequence: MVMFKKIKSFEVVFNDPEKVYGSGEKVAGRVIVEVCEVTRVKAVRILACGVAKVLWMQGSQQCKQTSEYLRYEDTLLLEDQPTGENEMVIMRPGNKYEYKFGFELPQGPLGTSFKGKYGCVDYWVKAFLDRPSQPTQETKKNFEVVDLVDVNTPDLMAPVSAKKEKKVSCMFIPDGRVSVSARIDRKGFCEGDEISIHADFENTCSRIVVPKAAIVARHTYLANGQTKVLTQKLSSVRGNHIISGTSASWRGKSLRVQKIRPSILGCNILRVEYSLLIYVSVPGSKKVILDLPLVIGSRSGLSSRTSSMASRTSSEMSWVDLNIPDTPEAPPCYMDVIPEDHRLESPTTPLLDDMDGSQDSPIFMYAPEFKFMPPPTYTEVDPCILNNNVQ

Substance	binding (Myc-BirA*-Txnip (human) [1])	binding [3]	binding (Myc-BirA*-Txnip (human) [2])
Eukaryotic translation initiation factor 5 (from UniProt P55010 1-431)	binds	–	–
Heat shock 70 kDa protein 1A/1B (from UniProt P0DMV8 1-641)	binds	no binding	no binding (only culture in low glucose (5.5 mM))
Heat shock protein HSP 90-beta (from UniProt P08238 1-724)	binds	no binding	no binding (only culture in low glucose (5.5 mM))
Neuroblast differentiation-associated protein AHNAK (from UniProt Q09666 1-5890)	binds	–	–
Nuclear mitotic apparatus protein 1 (from UniProt Q14980 1-2115)	binds	–	–
Sex comb on midleg-like protein 2 (from UniProt Q9UQR0 1-700)	binds	–	–
Src substrate cortactin (from UniProt Q14247 1-550)	binds	–	–
TPR nucleoprotein (from UniProt P12270 1-2363)	binds	–	–
Transcription intermediary factor 1-beta (from UniProt Q13263 1-835)	binds	–	–
UPF0428 protein CXorf56 (from UniProt Q9H5V9 1-222)	binds	–	–

More lines, main results first:

binding (Myc-BirA*-Txnip (human) [1])	binding [3]	Substance	binding (Myc-BirA*-Txnip (human) [2])
binds	–	Filamin-A, isoform 2 (from UniProt P21333-2)	–
binds	no binding	Heat shock cognate 71 kDa protein (from UniProt P11142 1-646)	–
binds	–	JmjC domain-containing histone demethylation protein 2C (from UniProt Q15652 1-2540)	–
binds	–	Poly ADP-ribose polymerase 1 (from UniProt P09874 1-1014)	–
binds	no binding	Stress-induced phosphoprotein 1 (from UniProt P31948 1-543)	–
binds	–	cDNA FLJ56180 fis (from UniProt Q6ZNN8)	–
